{"source": "patent US20220331247A1", "about": "“Polymeric micelle, methods of production and uses thereof” (Association for the Advancement of Tissue Engineering and …, priority 2019, published 2022)", "test_system": "hACs co-cultured with activated M1 macrophages", "assay": "Co-culture model of inflammation: hACs with activated M1 macrophages", "type": "cell-based, human", "conditions": "especially after 1 day of treatment", "note": "For at least one compound, name, drawing or mass did not settle the structure."}
{"smiles": "C[C@@H]1C[C@H]2[C@@H]3CCC4=CC(=O)C=C[C@]4(C)[C@@]3(F)[C@@H](O)C[C@]2(C)[C@@]1(O)C(=O)CO", "note": "[Dex, dexamethasone]", "values": [{"measurement": "quantity of DNA of THP-1 cells in co-culture", "result": "significantly reduced the quantity of DNA"}]}
